Results are given in words; binding and its absence hold for the method and conditions named. In cells and extracts the contact can be indirect. Some entries that bind do so weakly or less than the wild type. For some assays here: Tags and fused reporters may be left off the sequences shown. Each block holds one substance with its values, some of them ahead of it.
Assays:
[1] = target: endogenous KPNB1 (mouse liver) (mouse (endogenous in liver)) (UniProt P70168); test: co-IP; mouse liver homogenised in RIPA buffer 1 (50 mM Tris-HCl pH 8.0, 450 mM NaCl, 1% Triton X-100), diluted with 2 vol of the buffer without NaCl; IP with anti-KPNB1 or control IgG; blot with anti-PER2
[2] = target: T1, Venus C-terminal (VC)-tagged CRY1 (UniProt Q16526); test: split reporter; BiFC of VN- and VC-tagged proteins in U2 OS cells, fixed 24 hr after transfection, fluorescence microscopy; with control or KPNB1 siRNA
T1 sequence: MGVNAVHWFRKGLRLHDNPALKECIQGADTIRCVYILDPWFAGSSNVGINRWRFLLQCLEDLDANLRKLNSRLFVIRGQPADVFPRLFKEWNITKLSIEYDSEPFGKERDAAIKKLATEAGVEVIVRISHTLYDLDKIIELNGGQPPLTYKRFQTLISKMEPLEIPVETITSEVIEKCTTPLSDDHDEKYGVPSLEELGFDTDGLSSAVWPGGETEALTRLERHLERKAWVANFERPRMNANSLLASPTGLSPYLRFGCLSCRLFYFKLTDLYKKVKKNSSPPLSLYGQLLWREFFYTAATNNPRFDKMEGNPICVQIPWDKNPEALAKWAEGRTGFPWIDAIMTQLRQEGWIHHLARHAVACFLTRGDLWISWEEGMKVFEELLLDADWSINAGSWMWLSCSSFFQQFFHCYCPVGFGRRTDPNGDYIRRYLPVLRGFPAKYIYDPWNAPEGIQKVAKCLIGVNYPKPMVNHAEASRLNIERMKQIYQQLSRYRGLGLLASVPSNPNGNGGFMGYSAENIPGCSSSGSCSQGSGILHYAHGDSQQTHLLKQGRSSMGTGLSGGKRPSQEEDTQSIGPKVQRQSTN

The chains behind the UniProt entries cited, without tags or fusion partners.
UniProt P70168: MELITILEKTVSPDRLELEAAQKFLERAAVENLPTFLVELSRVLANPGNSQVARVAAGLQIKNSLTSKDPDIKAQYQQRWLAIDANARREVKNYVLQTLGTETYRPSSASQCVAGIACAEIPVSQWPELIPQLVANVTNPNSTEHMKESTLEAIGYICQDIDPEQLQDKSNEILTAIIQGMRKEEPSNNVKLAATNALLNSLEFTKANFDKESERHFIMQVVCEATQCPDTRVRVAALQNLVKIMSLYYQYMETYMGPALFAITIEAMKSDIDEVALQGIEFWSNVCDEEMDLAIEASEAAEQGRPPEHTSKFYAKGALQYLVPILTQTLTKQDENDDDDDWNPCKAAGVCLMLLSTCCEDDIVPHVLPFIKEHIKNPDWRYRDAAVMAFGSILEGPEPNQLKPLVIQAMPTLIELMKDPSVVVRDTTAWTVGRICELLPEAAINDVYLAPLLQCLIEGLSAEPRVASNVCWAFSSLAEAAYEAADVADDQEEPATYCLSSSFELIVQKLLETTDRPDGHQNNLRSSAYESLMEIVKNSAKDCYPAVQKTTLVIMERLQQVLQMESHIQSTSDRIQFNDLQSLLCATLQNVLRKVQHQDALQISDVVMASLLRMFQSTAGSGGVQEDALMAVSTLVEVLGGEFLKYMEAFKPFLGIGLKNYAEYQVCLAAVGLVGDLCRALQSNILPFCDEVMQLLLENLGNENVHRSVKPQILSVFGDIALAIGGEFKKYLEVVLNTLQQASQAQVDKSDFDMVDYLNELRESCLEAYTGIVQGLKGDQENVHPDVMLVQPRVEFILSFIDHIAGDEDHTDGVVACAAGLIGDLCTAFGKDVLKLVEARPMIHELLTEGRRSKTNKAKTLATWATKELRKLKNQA
UniProt O15534: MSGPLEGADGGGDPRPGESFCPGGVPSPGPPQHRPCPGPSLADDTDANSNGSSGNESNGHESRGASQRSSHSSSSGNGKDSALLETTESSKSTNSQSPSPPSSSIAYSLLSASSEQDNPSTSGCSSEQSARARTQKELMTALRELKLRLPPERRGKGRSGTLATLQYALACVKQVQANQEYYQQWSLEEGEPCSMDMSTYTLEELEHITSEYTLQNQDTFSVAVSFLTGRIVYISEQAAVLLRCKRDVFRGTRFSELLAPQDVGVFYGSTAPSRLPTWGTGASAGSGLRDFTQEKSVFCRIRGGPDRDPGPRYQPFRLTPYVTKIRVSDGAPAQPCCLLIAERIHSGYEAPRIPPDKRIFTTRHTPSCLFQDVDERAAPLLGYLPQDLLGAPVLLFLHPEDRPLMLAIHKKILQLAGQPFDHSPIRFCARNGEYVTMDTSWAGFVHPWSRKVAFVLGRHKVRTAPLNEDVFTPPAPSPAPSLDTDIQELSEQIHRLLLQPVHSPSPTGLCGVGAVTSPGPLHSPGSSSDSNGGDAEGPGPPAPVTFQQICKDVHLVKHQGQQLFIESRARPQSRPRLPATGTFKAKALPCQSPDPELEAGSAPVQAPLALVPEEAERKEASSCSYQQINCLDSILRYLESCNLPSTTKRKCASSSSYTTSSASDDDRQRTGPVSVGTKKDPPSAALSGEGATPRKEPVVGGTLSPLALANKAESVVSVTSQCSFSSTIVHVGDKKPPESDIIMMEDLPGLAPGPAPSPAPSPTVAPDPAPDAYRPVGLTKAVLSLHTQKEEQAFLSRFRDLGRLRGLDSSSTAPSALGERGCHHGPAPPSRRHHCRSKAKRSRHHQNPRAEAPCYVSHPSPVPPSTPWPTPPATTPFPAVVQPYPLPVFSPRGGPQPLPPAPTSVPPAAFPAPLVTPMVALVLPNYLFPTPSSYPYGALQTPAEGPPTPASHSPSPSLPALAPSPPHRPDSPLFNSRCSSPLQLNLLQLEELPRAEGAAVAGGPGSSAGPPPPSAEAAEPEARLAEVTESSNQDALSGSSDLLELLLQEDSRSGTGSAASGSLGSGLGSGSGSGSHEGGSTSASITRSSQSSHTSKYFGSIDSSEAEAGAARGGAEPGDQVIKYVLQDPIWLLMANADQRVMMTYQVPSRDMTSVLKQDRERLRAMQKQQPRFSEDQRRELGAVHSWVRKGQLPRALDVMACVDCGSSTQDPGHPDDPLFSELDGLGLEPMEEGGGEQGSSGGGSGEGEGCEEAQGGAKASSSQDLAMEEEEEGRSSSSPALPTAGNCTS
UniProt O54943: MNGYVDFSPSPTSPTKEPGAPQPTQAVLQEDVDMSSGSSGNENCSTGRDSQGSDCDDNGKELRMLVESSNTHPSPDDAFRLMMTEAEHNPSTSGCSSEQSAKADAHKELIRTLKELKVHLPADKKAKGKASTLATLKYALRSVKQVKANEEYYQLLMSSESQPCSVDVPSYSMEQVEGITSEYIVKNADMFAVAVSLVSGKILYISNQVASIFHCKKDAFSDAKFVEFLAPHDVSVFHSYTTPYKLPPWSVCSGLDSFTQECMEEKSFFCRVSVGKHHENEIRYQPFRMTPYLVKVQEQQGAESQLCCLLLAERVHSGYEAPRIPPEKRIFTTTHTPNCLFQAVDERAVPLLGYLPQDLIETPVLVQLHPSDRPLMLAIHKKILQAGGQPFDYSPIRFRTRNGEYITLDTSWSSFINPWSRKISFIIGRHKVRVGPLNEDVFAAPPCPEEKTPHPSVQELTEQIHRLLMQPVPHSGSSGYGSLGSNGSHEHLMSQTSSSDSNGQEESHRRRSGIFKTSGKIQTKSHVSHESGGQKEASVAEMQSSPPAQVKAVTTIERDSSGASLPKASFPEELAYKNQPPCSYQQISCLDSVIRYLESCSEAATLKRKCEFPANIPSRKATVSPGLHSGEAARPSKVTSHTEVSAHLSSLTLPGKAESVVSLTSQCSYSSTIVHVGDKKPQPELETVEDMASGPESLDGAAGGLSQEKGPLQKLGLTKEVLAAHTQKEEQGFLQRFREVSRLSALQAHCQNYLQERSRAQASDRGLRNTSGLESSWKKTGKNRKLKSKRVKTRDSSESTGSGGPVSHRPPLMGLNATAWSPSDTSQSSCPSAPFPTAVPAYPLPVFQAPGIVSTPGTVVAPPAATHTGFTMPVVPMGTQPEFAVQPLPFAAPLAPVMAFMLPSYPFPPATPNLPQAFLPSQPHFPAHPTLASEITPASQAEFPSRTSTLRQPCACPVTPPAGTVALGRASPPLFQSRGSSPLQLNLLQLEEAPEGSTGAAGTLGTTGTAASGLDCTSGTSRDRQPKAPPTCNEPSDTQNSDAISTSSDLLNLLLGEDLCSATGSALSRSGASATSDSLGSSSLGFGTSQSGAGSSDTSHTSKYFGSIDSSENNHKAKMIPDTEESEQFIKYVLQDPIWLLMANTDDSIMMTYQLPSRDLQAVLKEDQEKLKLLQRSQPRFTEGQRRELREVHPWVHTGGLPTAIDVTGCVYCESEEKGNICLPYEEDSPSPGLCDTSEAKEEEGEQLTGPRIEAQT
UniProt Q14974: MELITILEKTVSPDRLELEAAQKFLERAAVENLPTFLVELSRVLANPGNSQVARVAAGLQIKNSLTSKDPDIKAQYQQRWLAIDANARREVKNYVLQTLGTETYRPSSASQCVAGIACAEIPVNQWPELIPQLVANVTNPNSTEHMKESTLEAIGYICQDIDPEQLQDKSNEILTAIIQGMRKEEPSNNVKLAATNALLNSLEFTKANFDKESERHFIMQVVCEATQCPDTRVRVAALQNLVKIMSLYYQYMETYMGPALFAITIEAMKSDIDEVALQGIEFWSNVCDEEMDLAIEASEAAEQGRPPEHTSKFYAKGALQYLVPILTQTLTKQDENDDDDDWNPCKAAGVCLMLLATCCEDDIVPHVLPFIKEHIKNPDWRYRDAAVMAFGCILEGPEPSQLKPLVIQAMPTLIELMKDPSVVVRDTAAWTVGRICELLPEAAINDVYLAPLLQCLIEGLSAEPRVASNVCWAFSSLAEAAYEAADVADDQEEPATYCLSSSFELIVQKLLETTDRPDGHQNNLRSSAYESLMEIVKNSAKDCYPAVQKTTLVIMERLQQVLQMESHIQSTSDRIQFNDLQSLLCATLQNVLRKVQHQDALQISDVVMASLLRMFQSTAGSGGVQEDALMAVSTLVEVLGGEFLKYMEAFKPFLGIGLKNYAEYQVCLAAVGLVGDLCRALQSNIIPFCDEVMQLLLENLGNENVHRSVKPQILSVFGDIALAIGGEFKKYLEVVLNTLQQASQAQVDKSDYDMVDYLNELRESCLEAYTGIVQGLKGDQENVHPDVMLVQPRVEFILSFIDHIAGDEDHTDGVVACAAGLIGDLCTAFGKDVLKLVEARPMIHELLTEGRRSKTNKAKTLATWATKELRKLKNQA

[3] = target: T2, Venus C-terminal (VC)-tagged CRY2 (UniProt Q49AN0); test: as above
T2 sequence: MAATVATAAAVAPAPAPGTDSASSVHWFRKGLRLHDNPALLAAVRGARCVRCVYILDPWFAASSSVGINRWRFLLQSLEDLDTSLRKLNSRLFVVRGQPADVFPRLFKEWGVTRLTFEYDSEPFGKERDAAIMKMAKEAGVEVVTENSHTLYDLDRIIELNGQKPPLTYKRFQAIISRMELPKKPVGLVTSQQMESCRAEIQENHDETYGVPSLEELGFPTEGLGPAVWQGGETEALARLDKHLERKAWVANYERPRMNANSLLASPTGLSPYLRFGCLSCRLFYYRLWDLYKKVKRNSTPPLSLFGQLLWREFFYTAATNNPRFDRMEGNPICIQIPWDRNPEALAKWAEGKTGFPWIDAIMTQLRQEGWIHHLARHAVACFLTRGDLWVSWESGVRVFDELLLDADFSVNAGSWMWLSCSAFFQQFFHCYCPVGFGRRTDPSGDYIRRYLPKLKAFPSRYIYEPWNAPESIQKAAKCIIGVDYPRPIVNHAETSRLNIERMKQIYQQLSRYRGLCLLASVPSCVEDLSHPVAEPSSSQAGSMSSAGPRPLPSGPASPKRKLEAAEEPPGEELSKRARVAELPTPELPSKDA

[4] = target: Venus-tagged PER1 (UniProt O15534); test: co-IP; U2 OS cells transfected with Venus-tagged protein, lysed in RIPA buffer (50 mM HEPES pH 7.4, 150 mM NaCl, 1% NP-40, 0.5% sodium deoxycholate) 48 hr after transfection; anti-GFP on protein-G magnetic beads, 4°C overnight; blot with anti-KPNB1
[5] = target: T3, Venus-tagged PER2 (UniProt O15055); test: as above
T3 sequence: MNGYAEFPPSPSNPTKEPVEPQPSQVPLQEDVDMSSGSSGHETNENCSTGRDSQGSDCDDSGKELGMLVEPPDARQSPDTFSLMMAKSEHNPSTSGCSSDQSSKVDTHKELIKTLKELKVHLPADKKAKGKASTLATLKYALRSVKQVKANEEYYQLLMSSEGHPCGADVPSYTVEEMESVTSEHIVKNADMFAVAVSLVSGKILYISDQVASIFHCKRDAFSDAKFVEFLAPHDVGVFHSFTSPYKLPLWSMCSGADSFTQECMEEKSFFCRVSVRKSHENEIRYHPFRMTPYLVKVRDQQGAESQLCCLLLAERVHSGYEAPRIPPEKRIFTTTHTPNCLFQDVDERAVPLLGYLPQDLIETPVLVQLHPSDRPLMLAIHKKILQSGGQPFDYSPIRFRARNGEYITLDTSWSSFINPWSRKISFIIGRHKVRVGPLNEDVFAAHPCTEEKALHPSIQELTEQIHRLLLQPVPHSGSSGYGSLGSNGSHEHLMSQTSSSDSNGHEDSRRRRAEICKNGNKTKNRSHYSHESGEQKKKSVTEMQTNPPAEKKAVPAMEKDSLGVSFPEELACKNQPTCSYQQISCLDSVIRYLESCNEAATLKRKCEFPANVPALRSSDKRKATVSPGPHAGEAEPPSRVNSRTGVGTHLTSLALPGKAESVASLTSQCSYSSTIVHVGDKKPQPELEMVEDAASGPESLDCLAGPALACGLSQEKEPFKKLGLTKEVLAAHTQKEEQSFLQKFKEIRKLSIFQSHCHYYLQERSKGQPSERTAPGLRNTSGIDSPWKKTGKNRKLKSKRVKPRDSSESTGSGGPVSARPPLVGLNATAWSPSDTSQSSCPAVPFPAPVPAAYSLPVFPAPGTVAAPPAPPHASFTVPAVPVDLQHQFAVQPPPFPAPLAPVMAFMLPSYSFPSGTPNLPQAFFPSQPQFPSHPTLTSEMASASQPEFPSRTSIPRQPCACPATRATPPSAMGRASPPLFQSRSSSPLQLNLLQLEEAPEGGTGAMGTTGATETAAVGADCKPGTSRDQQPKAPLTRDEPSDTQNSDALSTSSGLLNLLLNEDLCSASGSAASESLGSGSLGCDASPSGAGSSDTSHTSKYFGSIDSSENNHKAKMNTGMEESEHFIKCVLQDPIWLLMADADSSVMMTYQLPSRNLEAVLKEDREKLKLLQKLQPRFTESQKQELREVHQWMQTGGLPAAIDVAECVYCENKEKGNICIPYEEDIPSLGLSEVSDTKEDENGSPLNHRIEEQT

- binding [1]: binds
Substance: endogenous PER2 (mouse liver) (from UniProt O54943 1-1257)

- binding [2]: binds
- binding [3]: binds
Substance: Venus N terminal (VN)-tagged PER1 (from UniProt O15534 1-1290)

- binding [4]: binds
- binding [5]: binds
Substance: KPNB1 (from UniProt Q14974 1-876)
